Test results: patent US20210275685A1
These are yes or no findings as the source states them, for the method shown. Some binding calls cover weakened binding; strength is not graded here.

Protein sequences, listed by entry. Tags and fused reporters are not part of them. Lines headed by an entry give the natural chain unless they say otherwise; changes in a name come on top.
UniProt Q13443: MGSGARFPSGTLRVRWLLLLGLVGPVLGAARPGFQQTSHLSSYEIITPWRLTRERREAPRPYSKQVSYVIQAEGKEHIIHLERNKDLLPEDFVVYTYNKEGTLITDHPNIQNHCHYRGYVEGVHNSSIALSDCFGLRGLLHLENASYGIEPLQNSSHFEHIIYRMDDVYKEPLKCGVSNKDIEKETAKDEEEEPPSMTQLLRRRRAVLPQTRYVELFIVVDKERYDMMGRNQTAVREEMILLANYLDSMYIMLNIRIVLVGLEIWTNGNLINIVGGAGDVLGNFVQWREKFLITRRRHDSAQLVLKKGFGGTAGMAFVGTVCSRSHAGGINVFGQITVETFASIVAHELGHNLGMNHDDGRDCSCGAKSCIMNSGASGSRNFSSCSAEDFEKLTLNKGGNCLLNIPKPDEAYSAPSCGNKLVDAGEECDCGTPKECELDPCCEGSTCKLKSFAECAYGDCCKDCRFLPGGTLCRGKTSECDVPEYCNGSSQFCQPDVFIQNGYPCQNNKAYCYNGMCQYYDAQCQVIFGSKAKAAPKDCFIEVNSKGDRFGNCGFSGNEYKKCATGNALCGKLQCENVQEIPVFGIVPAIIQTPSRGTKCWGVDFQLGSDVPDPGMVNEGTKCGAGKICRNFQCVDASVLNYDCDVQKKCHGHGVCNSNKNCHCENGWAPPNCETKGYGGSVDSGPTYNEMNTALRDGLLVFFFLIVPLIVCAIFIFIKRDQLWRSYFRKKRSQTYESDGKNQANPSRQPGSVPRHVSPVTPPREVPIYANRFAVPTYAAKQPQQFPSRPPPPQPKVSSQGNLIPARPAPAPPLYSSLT

How the values were obtained:
[1] = target: His-tagged soluble human ADAM9 (human) (UniProt Q13443); test: ELISA (RLU): huADAM9-His (1 µg/mL) captured by plate-coated anti-His antibody, antibody diluted 0.03-1 µg/ml
[2] = target: His-tagged soluble human ADAM9 (human) (UniProt Q13443); test: ELISA; huADAM9-His (1 µg/mL) captured by anti-His antibody, serial dilutions of antibody
[3] = target: His-tagged soluble human ADAM9 (human) (UniProt Q13443); test: BIACORE

Row | Binder | binding [1] | binding [2] | binding [3]
1 | hMAB-A (2A.2) (antibody, V domains shown) VH: EVQLVESGGGLVKPGGSLRLSCAASGFTFSSYWMHWVRQAPGKGLEWVGEIIPIFGHTNYNEKFKSRFTISLDNSKNTLYLQMGSLRAEDTAVYYCARGGYYYYFNSGTLDYWGQGTTVTVSS VL: DIVMTQSPDSLAVSLGERATISCKASQSVDYSGDSYMNWYQQKPGQPPKLLIYAASDLESGIPARFSGSGSGTDFTLTISSLEPEDFATYYCQQSHEDPFTFGQGTKLEIK | binds | – | –
2 | hMAB-A (2.2) (antibody, V domains shown) VH: EVQLVESGGGLVKPGGSLRLSCAASGFTFSSYWMHWVRQAPGKGLEWVGEIIPIFGHTNYNEKFKSRFTISLDNSKNTLYLQMGSLRAEDTAVYYCARGGYYYYGSRDYFDYWGQGTTVTVSS VL: DIVMTQSPDSLAVSLGERATISCKASQSVDYSGDSYMNWYQQKPGQPPKLLIYAASDLESGIPARFSGSGSGTDFTLTISSLEPEDFATYYCQQSHEDPFTFGQGTKLEIK | binds | – | binds
3 | hMAB-A (2.3) (antibody, V domains shown) VH: EVQLVESGGGLVKPGGSLRLSCAASGFTFSSYWMHWVRQAPGKGLEWVGEIIPIFGHTNYNEKFKSRFTISLDNSKNTLYLQMGSLRAEDTAVYYCARGGYYYYGSRDYFDYWGQGTTVTVSS VL: DIVMTQSPDSLAVSLGERATISCRASQSVDYSGDSYMNWYQQKPGQPPKLLIYAASDLESGIPARFSGSGSGTDFTLTISSLEPEDFATYYCQQSHEDPFTFGQGTKLEIK | – | – | binds
4 | hMAB-A (1.1) (antibody, V domains shown) VH: EVQLVESGGGLVKPGGSLRLSCAASGFTFSSYWMHWVRQAPGKGLEWVGEIIPINGHTNYNEKFKSRFTISLDNSKNTLYLQMGSLRAEDTAVYYCARGGYYYYGSRDYFDYWGQGTTVTVSS VL: DIVMTQSPDSLAVSLGERATISCKASQSVDYDGDSYMNWYQQKPGQPPKLLIYAASDLESGIPARFSGSGSGTDFTLTISSLEPEDFATYYCQQSHEDPFTFGQGTKLEIK | – | – | binds
5 | hMAB-A (2B.2) (antibody, V domains shown) VH: EVQLVESGGGLVKPGGSLRLSCAASGFTFSSYWMHWVRQAPGKGLEWVGEIIPIFGHTNYNEKFKSRFTISLDNSKNTLYLQMGSLRAEDTAVYYCARGGYYYYIGKGVLDYWGQGTTVTVSS VL: DIVMTQSPDSLAVSLGERATISCKASQSVDYSGDSYMNWYQQKPGQPPKLLIYAASDLESGIPARFSGSGSGTDFTLTISSLEPEDFATYYCQQSHEDPFTFGQGTKLEIK | binds | binds | binds
6 | hMAB-A (2C.2) (antibody, V domains shown) VH: EVQLVESGGGLVKPGGSLRLSCAASGFTFSSYWMHWVRQAPGKGLEWVGEIIPIFGHTNYNEKFKSRFTISLDNSKNTLYLQMGSLRAEDTAVYYCARGGYYYYPRFGWLDYWGQGTTVTVSS VL: DIVMTQSPDSLAVSLGERATISCKASQSVDYSGDSYMNWYQQKPGQPPKLLIYAASDLESGIPARFSGSGSGTDFTLTISSLEPEDFATYYCQQSHEDPFTFGQGTKLEIK | binds | binds | binds

The remaining lines, values ahead:

Row | binding [1] | binding [2] | binding [3] | Binder
7 | binds | binds | binds | hMAB-A (2D.2) (antibody, V domains shown) VH: EVQLVESGGGLVKPGGSLRLSCAASGFTFSSYWMHWVRQAPGKGLEWVGEIIPIFGHTNYNEKFKSRFTISLDNSKNTLYLQMGSLRAEDTAVYYCARGGYYYYTGKGVLDYWGQGTTVTVSS VL: DIVMTQSPDSLAVSLGERATISCKASQSVDYSGDSYMNWYQQKPGQPPKLLIYAASDLESGIPARFSGSGSGTDFTLTISSLEPEDFATYYCQQSHEDPFTFGQGTKLEIK
8 | – | – | binds | hMAB-A (3.3) (antibody, V domains shown) VH: EVQLVESGGGLVKPGGSLRLSCAASGFTFSSYWMHWVRQAPGKGLEWVGEIIPIFGHTNYNERFQGRFTISLDNSKNTLYLQMGSLRAEDTAVYYCARGGYYYYGSRDYFDYWGQGTTVTVSS VL: DIVMTQSPDSLAVSLGERATISCRASQSVDYSGDSYMNWYQQKPGQPPKLLIYAASDLESGIPARFSGSGSGTDFTLTISSLEPEDFATYYCQQSHEDPFTFGQGTKLEIK
9 | binds | – | – | hMAB-A (2G.2) (antibody, V domains shown) VH: EVQLVESGGGLVKPGGSLRLSCAASGFTFSSYWMHWVRQAPGKGLEWVGEIIPIFGHTNYNEKFKSRFTISLDNSKNTLYLQMGSLRAEDTAVYYCARGGYYYYFNKAVLDYWGQGTTVTVSS VL: DIVMTQSPDSLAVSLGERATISCKASQSVDYSGDSYMNWYQQKPGQPPKLLIYAASDLESGIPARFSGSGSGTDFTLTISSLEPEDFATYYCQQSHEDPFTFGQGTKLEIK
10 | – | – | binds | hMAB-A (4.4) (antibody, V domains shown) VH: EVQLVESGGGLVKPGGSLRLSCAASGFTFSSYWIHWVRQAPGKGLEWVGEIIPIFGHTNYNERFQGRFTISLDNSKNTLYLQMGSLRAEDTAVYYCARGGYYYYGSRDYFDYWGQGTTVTVSS VL: DIVMTQSPDSLAVSLGERATISCRASQSVDYSGDSYLNWYQQKPGQPPKLLIYAASDLESGIPARFSGSGSGTDFTLTISSLEPEDFATYYCQQSYSTPFTFGQGTKLEIK
11 | binds | – | – | hMAB-A (2F.2) (antibody, V domains shown) VH: EVQLVESGGGLVKPGGSLRLSCAASGFTFSSYWMHWVRQAPGKGLEWVGEIIPIFGHTNYNEKFKSRFTISLDNSKNTLYLQMGSLRAEDTAVYYCARGGYYYYFHSGTLDYWGQGTTVTVSS VL: DIVMTQSPDSLAVSLGERATISCKASQSVDYSGDSYMNWYQQKPGQPPKLLIYAASDLESGIPARFSGSGSGTDFTLTISSLEPEDFATYYCQQSHEDPFTFGQGTKLEIK
12 | binds | – | – | hMAB-A (2E.2) (antibody, V domains shown) VH: EVQLVESGGGLVKPGGSLRLSCAASGFTFSSYWMHWVRQAPGKGLEWVGEIIPIFGHTNYNEKFKSRFTISLDNSKNTLYLQMGSLRAEDTAVYYCARGGYYYYDSNAVLDYWGQGTTVTVSS VL: DIVMTQSPDSLAVSLGERATISCKASQSVDYSGDSYMNWYQQKPGQPPKLLIYAASDLESGIPARFSGSGSGTDFTLTISSLEPEDFATYYCQQSHEDPFTFGQGTKLEIK
13 | binds | – | – | hMAB-A (2H.2) (antibody, V domains shown) VH: EVQLVESGGGLVKPGGSLRLSCAASGFTFSSYWMHWVRQAPGKGLEWVGEIIPIFGHTNYNEKFKSRFTISLDNSKNTLYLQMGSLRAEDTAVYYCARGGYYYYGGSGVLDYWGQGTTVTVSS VL: DIVMTQSPDSLAVSLGERATISCKASQSVDYSGDSYMNWYQQKPGQPPKLLIYAASDLESGIPARFSGSGSGTDFTLTISSLEPEDFATYYCQQSHEDPFTFGQGTKLEIK
14 | binds | – | – | hMAB-A (2J.2) (antibody, V domains shown) VH: EVQLVESGGGLVKPGGSLRLSCAASGFTFSSYWMHWVRQAPGKGLEWVGEIIPIFGHTNYNEKFKSRFTISLDNSKNTLYLQMGSLRAEDTAVYYCARGGYYYYYNSGTLDYWGQGTTVTVSS VL: DIVMTQSPDSLAVSLGERATISCKASQSVDYSGDSYMNWYQQKPGQPPKLLIYAASDLESGIPARFSGSGSGTDFTLTISSLEPEDFATYYCQQSHEDPFTFGQGTKLEIK
